# From the supplement of paper PMC8728848
# The list shows a part of the results.
# B1: HFR-3 (Triticum aestivum) (protein)
# chain: MKGLLLCALALAFAAVTTHAQLQSCPTRCGKQADGMECPNNLCCSKDGYCGLGVDYCSAGAGCQSGACYDNKICGAQANGTLCRNNHCCSSGGRCGYGREYCSNGCQGGPCWADLKCGHLDNGKLCPNNLCCSQYGYCGLGPEFCGTGCQNGACSTDKPCGNKANGAPCTNNYCCSQYGSCGLGKDYCGTGCQNGACN
# How the values were obtained:
# Test in all cases: glycan array binding signal (z-score within array); higher = stronger binding
# Details in all cases: glycan notation: IUPAC condensed, linker removed
# [1] = target: Neu5Ac(a2-8)Neu5Ac
# In short: (§1)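 Glycan array binding is given as a within-array Z-score, which can be read as non-binding when negative. The arrays, 3228 of them, came from the Consortium for Functional Glycomics database and were retained only where the protein sequence was available. Z-scores were averaged across arrays of the same protein sequence at different concentrations or buffers and across linkers.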
# [2] = target: Neu5Ac(a2-8)Neu5Ac(a2-3)Gal(b1-3)GalNAc(b1-4)[Neu5Ac(a2-3)]Gal(b1-4)Glc
# In short: as §1
# [3] = target: Neu5Ac(a2-8)Neu5Ac(a2-3)Gal(b1-3)GalNAc(b1-4)[Neu5Ac(a2-8)Neu5Ac(a2-3)]Gal(b1-4)Glc
# In short: as §1
# [4] = target: Neu5Ac(a2-8)Neu5Ac(a2-3)Gal(b1-4)Glc
# In short: as §1
# [5] = target: Neu5Ac(a2-8)Neu5Ac(a2-3)Gal(b1-4)GlcNAc
# In short: as §1
# [6] = target: Neu5Ac(a2-8)Neu5Ac(a2-3)[Gal(b1-3)GalNAc(b1-4)]Gal(b1-4)Glc
# In short: as §1
# [7] = target: Neu5Ac(a2-8)Neu5Ac(a2-3)[GalNAc(b1-4)]Gal(b1-4)Glc
# In short: as §1
# [8] = target: Neu5Ac(a2-8)Neu5Ac(a2-8)Neu5Ac
# In short: as §1
# [9] = target: Neu5Ac(a2-8)Neu5Ac(a2-8)Neu5Ac(a2-3)Gal(b1-4)Glc
# In short: as §1
# [10] = target: Neu5Ac(a2-8)Neu5Ac(a2-8)Neu5Ac(a2-3)[Gal(b1-3)GalNAc(b1-4)]Gal(b1-4)Glc
# In short: as §1
# [11] = target: Neu5Ac(a2-8)Neu5Ac(a2-8)Neu5Ac(a2-3)[GalNAc(b1-4)]Gal(b1-4)Glc
# In short: as §1
# [12] = target: Neu5Ac(a2-8)Neu5Ac(a2-8)Neu5Ac(a2-8)Neu5Ac(a2-3)[GalNAc(b1-4)]Gal(b1-4)Glc
# In short: as §1
# [13] = target: Neu5Ac(a2-8)Neu5Gc(a2-3)Gal(b1-4)GlcNAc
# In short: as §1
# [14] = target: Neu5Ac(b2-6)Gal(b1-4)GlcNAc
# In short: as §1
# [15] = target: Neu5Ac(b2-6)GalNAc
# In short: as §1
# [16] = target: Neu5Ac9Ac(a2-3)Gal(b1-3)GlcNAc
# In short: as §1
# [17] = target: Neu5Ac9Ac(a2-3)Gal(b1-4)GlcNAc
# In short: as §1
# [18] = target: Neu5Ac9Ac(a2-6)Gal(b1-4)GlcNAc
# In short: as §1
# [19] = target: Neu5Gc(a2-3)Gal(b1-3)GlcNAc
# In short: as §1
# [20] = target: Neu5Gc(a2-3)Gal(b1-3)[Fuc(a1-4)]GlcNAc
# In short: as §1
# [21] = target: Neu5Gc(a2-3)Gal(b1-4)Glc
# In short: as §1
# [22] = target: Neu5Gc(a2-3)Gal(b1-4)GlcNAc
# In short: as §1
# [23] = target: Neu5Gc(a2-3)Gal(b1-4)GlcNAc(b1-3)Gal(b1-4)GlcNAc(b1-2)Man(a1-3)[Neu5Gc(a2-3)Gal(b1-4)GlcNAc(b1-3)Gal(b1-4)GlcNAc(b1-2)Man(a1-6)]Man(b1-4)GlcNAc(b1-4)GlcNAc
# In short: as §1
# [24] = target: Neu5Gc(a2-3)Gal(b1-4)[Fuc(a1-3)]GlcNAc
# In short: as §1
# [25] = target: Neu5Gc(a2-6)Gal(b1-4)GlcNAc
# In short: as §1
# [26] = target: Neu5Gc(a2-6)GalNAc
# In short: as §1
# [27] = target: Neu5Gc(a2-8)Neu5Ac(a2-3)Gal(b1-4)GlcNAc
# In short: as §1
# [28] = target: Neu5Gc(a2-8)Neu5Gc(a2-3)Gal(b1-4)GlcNAc
# In short: as §1
# [29] = target: Neu5Gc(a2-8)Neu5Gc(a2-3)Gal(b1-4)GlcNAc(b1-3)Gal(b1-4)GlcNAc
# In short: as §1
# [30] = target: Neu5Gc(a2-8)Neu5Gc(a2-6)Gal(b1-4)GlcNAc
# In short: as §1
# [31] = target: Neu5Gc(b2-6)Gal(b1-4)GlcNAc
# In short: as §1
binder,measurement,setting,value
B1,glycan array binding signal (z-score),[1],0.138
same,glycan array binding signal (z-score),[2],-1.43
same,glycan array binding signal (z-score),[3],0.674
same,glycan array binding signal (z-score),[4],-1.54
same,glycan array binding signal (z-score),[5],-0.058
same,glycan array binding signal (z-score),[6],-0.252
same,glycan array binding signal (z-score),[7],-0.57
same,glycan array binding signal (z-score),[8],0.012
same,glycan array binding signal (z-score),[9],-1.8
same,glycan array binding signal (z-score),[10],0.423
same,glycan array binding signal (z-score),[11],-0.316
same,glycan array binding signal (z-score),[12],-0.885
same,glycan array binding signal (z-score),[13],-0.994
same,glycan array binding signal (z-score),[14],0.213
same,glycan array binding signal (z-score),[15],-0.685
same,glycan array binding signal (z-score),[16],0.493
same,glycan array binding signal (z-score),[17],-0.326
same,glycan array binding signal (z-score),[18],-0.973
same,glycan array binding signal (z-score),[19],-0.969
same,glycan array binding signal (z-score),[20],0.891
same,glycan array binding signal (z-score),[21],-0.496
same,glycan array binding signal (z-score),[22],1.68
same,glycan array binding signal (z-score),[23],-0.36
same,glycan array binding signal (z-score),[24],-1.29
same,glycan array binding signal (z-score),[25],1.39
same,glycan array binding signal (z-score),[26],-0.676
same,glycan array binding signal (z-score),[27],-0.504
same,glycan array binding signal (z-score),[28],-0.961
same,glycan array binding signal (z-score),[29],1.02
same,glycan array binding signal (z-score),[30],0.199
same,glycan array binding signal (z-score),[31],0.001

# Laid out differently: entries from further up
binder	measurement	setting	value
B1	glycan array binding signal (z-score)	[8]	0.012
same	glycan array binding signal (z-score)	[9]	-1.8
